Measurements as given in paper PMC4838910.
Results are given in words; binding and its absence hold for the method and conditions named. Some binding calls cover weakened binding; strength is not graded here. Tags and fused reporters may be left off the sequences shown.

The chains behind the UniProt entries cited, without tags or fusion partners. Residues count along the entry.
UniProt P28307, residues 22-151: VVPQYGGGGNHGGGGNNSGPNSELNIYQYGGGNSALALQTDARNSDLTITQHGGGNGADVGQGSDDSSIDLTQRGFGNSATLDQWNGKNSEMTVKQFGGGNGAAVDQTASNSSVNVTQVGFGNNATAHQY

Target: T1, CsgC(9-110) with a C-terminal hexahistidine tag (E. coli) (UniProt P52107)
T1 sequence: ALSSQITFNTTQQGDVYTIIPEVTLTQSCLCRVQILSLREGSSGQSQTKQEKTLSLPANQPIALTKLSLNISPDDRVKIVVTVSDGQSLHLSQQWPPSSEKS
Experiment: NMR titration; 2D 1H-15N NMR spectra of 20 uM CsgC or CsgH in the presence of a 3-fold excess of CsgA; both purified

CsgA (mature form, residues 22-151), E. coli (from UniProt P28307 22-151)
binding: binds weakly
